# Source: PubChem BioAssay AID504444 (National Center for Advancing Translational Sciences (NCATS), 2011)
# Hit rate of the full screen: of about 360,000 compounds, about 7,500 (2.1%) were called active. The inconclusive results got no clear call from the source; some entries with a clear call stand among them for comparison. Calls come from the whole dose curve; as a rule, active = well fitted inhibition curve with a large enough effect; inconclusive = small, poorly fitted or top-dose-only effect, or effect the other way; inactive = flat fitted curve, though single readings scatter. A potency beside an inconclusive call is a rough fit, not a confirmed value.
# Test: Nrf2 qHTS screen for inhibitors; note: nearly all actives have a fitted effect of over 60% in size
# Settings: A549 ARE-Fluc reporter, luciferase luminescence, 18-24 h; activity change, negative = inhibition: at 46 µM (top of the series)
# Method in brief: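 Nrf2 activity is the BugLite luminescence, read 15 min after reagent at room temperature, following CellTiter-Fluor cytotoxicity readout (30 min, 37C). Compound titrations were applied for 18-24 h to 5000 A549 ARE_Fluc cells/well in 5% FBS OPTI-MEM.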
# % is set by controls: 0 for no effect and ±100 for the full control effect; potency is the fitted concentration of half-maximal effect.
SMILES,Potency,"activity change, negative = inhibition"
COc1ccc(OC)c(C2c3[nH]c4ccccc4c3C[C@H]3C(=O)N(CCCOC(C)C)CC(=O)N23)c1 (some centres undefined),"inconclusive: 23.1 µM [falling, single point]",
CCOc1ccc(N(CC(=O)Nc2ccccc2OCC)S(=O)(=O)c2c(C)noc2C)cc1,,inactive: 0.102%
Cn1nc(C(=O)NCc2ccccn2)c2ccccc2c1=O,active: 5.8 µM,
COC(=O)c1ccc(N/N=C/c2cc([N+](=O)[O-])cc(OC)c2O)cc1,"inconclusive: 16.4 µM [activator, partial curve, poor fit]",
CCN1C(=O)[C@@H]2[C@@H](c3ccc(-c4ccc(C(C)=O)cc4)cc3)N3CCCC[C@@]3(C(=O)OC)[C@@H]2C1=O,"inconclusive: 16.4 µM [falling, single point]",
Cc1ccc(S(=O)(=O)NCC(=O)N(CC(=O)NCc2ccco2)Cc2ccccc2)cc1,,inactive: 13.4%
O=C(/C=C/c1ccco1)Nc1ccc(-c2nc3ccccc3[nH]2)cc1,,inactive: -4.55%
CCC(C)NC(=O)Cn1c(=O)n(CCCCC(=O)NCc2ccco2)c(=O)c2ccccc21 (centres undefined),"inconclusive: 1.84 µM [activator, partial curve, poor fit]",
Cc1ccc(Nc2nc(NCc3ccco3)nc3nccnc23)c(C)c1,,inactive: 4.58%
CCN1CCN(CC(=O)Nc2ccc(OC(F)(F)F)cc2)CC1,,inactive: -3.35%
CCN(CC)S(=O)(=O)c1ccc(C)c(NC(=O)/C=C/c2cccs2)c1,"inconclusive: 29.1 µM [falling, single point]",
O=c1c2ccccc2nnn1-c1ccc(Br)cc1,"inconclusive: 5.8 µM [activator, full curve]",
Cc1cccc(NS(=O)(=O)c2cccc(C(=O)NCC(C)(C)N3CCOCC3)c2)c1,"inconclusive: 7.31 µM [falling, partial curve]",
CCOC(=O)c1nnn(-c2nonc2-n2cccc2)c1CN1CCC(C)CC1,"inconclusive: 32.6 µM [falling, single point]",
c1ccc(-n2ncc3c(NCCCN4CCOCC4)ncnc32)cc1,"inconclusive: 3.26 µM [activator, full curve, poor fit]",
O=C(CSc1cn(CCNC(=O)c2ccccc2F)c2ccccc12)Nc1ccc2c(c1)OCCO2,,inactive: 3.25%
ON/C=N/C(=S)Nc1ncc(C(F)(F)F)cc1Cl,"inconclusive: 29.1 µM [activator, single point]",
CC(=O)c1c(C(C)=O)c(C)n(Cc2ccccc2)c1C,"inconclusive: 9.2 µM [falling, partial curve, poor fit]",
COC(=O)C1=C(C(=O)OC)SC(=C2C(=S)C(C)(C)N(C(=O)C(C)C)c3ccccc32)S1,"inconclusive: 29.1 µM [falling, single point]",

# Exported tab-delimited: two of the compounds above
SMILES	Potency	activity change, negative = inhibition
COc1ccc(OC)c(C2c3[nH]c4ccccc4c3C[C@H]3C(=O)N(CCCOC(C)C)CC(=O)N23)c1 (some centres undefined)	inconclusive: 23.1 µM [falling, single point]	
CCOC(=O)c1nnn(-c2nonc2-n2cccc2)c1CN1CCC(C)CC1	inconclusive: 32.6 µM [falling, single point]	
